Primary screen of a compound library

Source: ChEMBL document CHEMBL3988442, “University of Dundee, Small-Polar-MMV Screening Library” (2021).

T. brucei: 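Whole-parasite assay of Trypanosoma brucei over 72 hours; the read-out is not stated. Compounds at 30 µM. Direction is inferred from retests: higher values go with stronger inhibition. Values scatter widely below zero; nearly all retest evidence comes from the higher of the two concentrations used. Of about 64,000 compounds tested this way, about 940 (1.5%) reached 50% or more in at least one test.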
Toxoplasma: 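Assay of Toxoplasma gondii numbers, read through their beta-galactosidase reporter with a colour substrate. Concentration: 10 µM. Higher reads as fewer parasites (inferred from which compounds were picked for retests). Size under these conditions: about 67,000 compounds, about 260 of them at 50% or above in at least one test.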

Each number is a percent effect as filed.
The controls that fix the scale are not given in the record; negative values are as filed.
Compounds were drawn at random from those tested, without regard to their results.
A dash means the value is not listed here; it may have been measured.

Compound | T. brucei | Toxoplasma
NC(=O)NCC(=O)N1CCC2(CC1)c1ccccc1CC2O (stereo not shown) | -26.99% | -11.92%
O=C(CN1CCN(C(=O)c2cccc(-c3ccoc3)c2)CC1)C1CC1 | -10.56% | -7.343%
Cc1cccc(CN2CCC(c3nnsc3S(C)(=O)=O)CC2)n1 | 1.958% | -4.784%
Cc1cnn(C2CCCN(C(=O)CCc3ccncc3)C2)c1 (stereo not shown) | 0.8577% | -1.18%
[H][C@]12CCN(C(=O)Cc3cccs3)C[C@@]1([H])OCCN(S(C)(=O)=O)C2 | -84.34% | -23.32%
[H][C@]12CC[C@]([H])(CN(C(=O)c3ccc(N)nc3)C1)N(Cc1ccccc1)C2 | -43.59% | -12.82%
COc1ccc(OC)c(CNC2CCCN(c3cccnn3)C2)c1 (stereo not shown) | -18.17% | -3.174%
CNCc1cc(F)ccc1Oc1ccc(Cl)cc1 | -18.58% | -2.468%
O=C(CCC1CCN(C(=O)c2csnn2)CC1)NCc1cccc(Cl)c1 | -43.81% | -4.503%
Cc1cc(C)n(C2CCCN(C(=O)c3ccc(N(C)C)nn3)C2)n1 (stereo not shown) | -18.09% | 13.28%
CC(=O)NC1(C(=O)N(C)Cc2c(C)noc2C)CCCCC1 | -34.9% | 12.06%
Cc1ccc(CN2CCn3c(CN4CCN(C)CC4)cnc3C2C)s1.O=C(O)C(F)(F)F.O=C(O)C(F)(F)F.O=C(O)C(F)(F)F (stereo not shown) | -43.75% | 0.07427%
O=C(Nc1ccc(-c2cscn2)cc1)C1CCCN(Cc2ccon2)C1 (stereo not shown) | -31.29% | -6.323%
O=C(NCC1CCOC1)c1csc(-c2ccc(F)cc2)n1 (stereo not shown) | 11.78% | -2.293%
[H][C@@]12C[C@H](C(=O)NC)[C@@]([H])(CN(C(=O)Nc3ccc(CC)cc3)C1)O2 | 28.67% | -5.765%
Cl.O=C(CCC1CCCC1)NCCn1nc(C2CCNC2)c2nccnc21 (stereo not shown) | -15.58% | 38.37%
COc1ccccc1C(=O)N1CCOC2(CCCN(C(C)=O)C2)C1 (stereo not shown) | -30.4% | -25.2%
CCCOc1ccc(CN)c(OC(F)F)c1 | - | -6.124%
CCc1c(C)nn(C)c1NC(=O)N1CCCOC(Cn2cccn2)C1 (stereo not shown) | -13.39% | 9.508%
O=C1CN([C@@H]2CC[C@@H](NS(=O)(=O)c3ccc(F)cc3)[C@H]2O)CCN1 | -15.02% | 7.46%
CCn1cc(S(=O)(=O)N2CCCC2c2ccc(C)o2)cn1 (stereo not shown) | -12.67% | -7.73%
Cc1nn(CCO)c(C)c1CNCc1cccnc1N(C)C | -8.277% | 0.4187%
O=C(O)C(F)(F)F.O=C(O)C(F)(F)F.[H][C@@]12CCN(Cc3nc(C)cs3)[C@]1([H])CC[C@@H](C(=O)Nc1cccnc1)O2 | -51.18% | -0.9091%
Cc1occc1C(=O)NCC(=O)NCCCOc1ccc(F)cc1 | -42.11% | -3.048%
COC(=O)[C@H]1CN(C(=O)NC(C)C)CCN1C(=O)CSC | -7.434% | -1.879%
O=C(O)C(F)(F)F.O=C1COC2(CCN(Cc3cccs3)CC2)CN1c1cncnc1 | -44.77% | -9.182%
O=C(O)C(F)(F)F.O=C(O)C(F)(F)F.O=C(O)C(F)(F)F.[H][C@@]12CCCO[C@]1([H])[C@H](N(C)Cc1ccco1)CN2Cc1cccnc1 | -18.35% | 0.9613%
CC(C)NC(=O)NC(C)c1ccc(-c2ccncc2)cc1 (stereo not shown) | -37.53% | 1.876%
O=C(Cc1cccs1)N1CCC(O)(CN2CCc3ccccc3C2)C1 (stereo not shown) | -37.57% | -32.32%
COc1nn(C)cc1C(=O)NCC1(O)CCc2ccccc2C1 (stereo not shown) | -19.45% | 3.197%
COc1ccncc1NC(=O)c1[nH]nc(C(C)C)c1Br | -25.95% | 3.56%
CN(C)Cc1cnn(-c2ccccc2C(=O)N(C)Cc2ccccc2)c1 | -25.68% | 7.579%
Cc1nc(C2(NCc3cccc(F)c3F)CCCCC2)no1 | -21.43% | 4.435%
Cc1nc(C)c(C(=O)NCCNc2ncccc2C(F)(F)F)s1 | -21.09% | -22%
Cn1nc(-c2ccc(F)cc2)cc1C(=O)NCCn1ccnc1 | - | 9.238%
O=C(Cc1ccccc1)C1CCCN(Cc2cncn2C2CCCC2)C1 (stereo not shown) | -0.5839% | 14.39%
O=C(c1ccccn1)N1CCN(c2ccc(-n3cccc3)nn2)CC1 | -7.414% | 5.775%
Cn1cc(CCC(=O)N2CCCC(n3cncn3)C2)cn1 (stereo not shown) | 8.421% | 11.9%
Cc1cc(I)cnc1NC(=O)C(C)(C)C | -23.03% | -6.586%
COc1ccc(CCC(=O)NCc2cc(C)on2)cc1 | -20.87% | 13%
CN(Cc1cnccn1)C(=O)Nc1cc(F)cc(N2CCCC2)c1 | -14.38% | 20.59%
O=C(NC[C@H]1OC[C@@H](NC2CCOCC2)[C@@H]1O)C1CCCC1 | -2.047% | 6.061%
CNC(=O)C(C)(C)N1CCC[C@H]1C(=O)NCCN1CCCC1.Cl.Cl | -59.9% | -10.94%
CN(Cc1ncc[nH]1)CC(c1cccs1)N1CCOCC1 (stereo not shown) | -20.49% | -0.6462%
Cc1nc(C)c(C(=O)N2CCc3c(C)cccc32)o1 | -67.27% | -25.64%
O=C(O)C(F)(F)F.O=C(O)C(F)(F)F.[H][C@]12C[C@@H](Cn3cncn3)N(c3nccs3)[C@@]1([H])CCN(C(C)C)C2 | -43.04% | -5.54%
Cc1nn2cccnc2c1C(=O)NCc1ccccc1OCC1CC1 | -46.5% | -33.96%
Cc1nc(CN2CCC3(CCN(Cc4cnn(C)c4)C3)C2=O)cs1 (stereo not shown) | -11.61% | 11.76%
CCc1nsc(NC2CC(=O)N(C3CC3)C2)n1 (stereo not shown) | -17.87% | -2.253%
CS(=O)(=O)N[C@H]1CCO[C@]2(CCN(C(=O)c3ccccn3)C2)C1.O=C(O)C(F)(F)F | -46.38% | -24.77%
CN1Cc2ccccc2CC2(CCN(C(=O)[C@H]3CCCO3)CC2)C1=O | -10.91% | -12.03%
CC1c2ncc(Cn3cccn3)n2CCN1Cc1cccnc1.O=C(O)C(F)(F)F.O=C(O)C(F)(F)F (stereo not shown) | -24.74% | -1.337%
CN(C)S(=O)(=O)N1CCC(Oc2cnccn2)CC1 | 45.12% | -4.545%
O=C(NCCc1nncn1C1CC1)c1cc2ccccn2c1 | -13.88% | 7.71%
O=C(CN1CCOC(Cn2cncn2)C1)NC(C1CC1)C1CC1 (stereo not shown) | -16.25% | 4.673%
Cc1cccc(C2CCCN(C(=O)CN3CCCC3=O)C2)c1 (stereo not shown) | -37.31% | -0.4327%
Cc1ccc(C(C)(O)CNC(=O)c2sccc2OC(F)F)o1 (stereo not shown) | -22.1% | -3.657%
CC(=O)N1CCN(Cc2ccc(C(F)(F)F)c(F)c2)CC(O)C1 (stereo not shown) | - | -47%
Cc1nccc(NCc2cncc3c2CCN(CCN(C)C)C3)n1 | -66.74% | -48%
Cc1noc(Cl)c1CCC(=O)N1CCC(CC(N)=O)CC1 | 21.85% | -5.964%
CC(C)c1noc(CN(C)C(=O)c2ncn[nH]2)n1 | -22.91% | 8.228%
[H][C@]12CCCCN1CCC[C@H]2Cn1ccnc1-c1nccn1C | -10.3% | 3.631%
O=C(C1SCCc2sccc21)N1CCN(CC(F)F)CC1 (stereo not shown) | -29.03% | 2.412%
CNc1ccc(C2CN(c3cc(C)nc(N)n3)CCO2)nc1 (stereo not shown) | -6.589% | -2.096%
CCc1[nH]ncc1C(=O)N1CCCC(n2cncn2)C1 (stereo not shown) | -1.311% | -7.089%
CCc1cc(C(=O)N2CC[C@@H](c3ccc4c(c3)OCO4)[C@H](O)C2)ccn1 | -43.87% | 1.323%
CC(C)COc1ccccc1CN(C)C(=O)c1cc(=O)[nH]c(=O)[nH]1 | -6.665% | -29.57%
Cc1csc(N2CCCN(C(=O)Cc3ccc(C)s3)CC2)n1 | -19.43% | 16.77%
CN(CC(=O)Nc1nc2c(s1)CCCCCC2)C(=O)c1ccco1 | -4.247% | -14.98%

5 of the entries, repeated:

COc1nn(C)cc1C(=O)NCC1(O)CCc2ccccc2C1 (stereo not shown) gave T. brucei: -19.45%; Toxoplasma: 3.197%.
Cn1nc(-c2ccc(F)cc2)cc1C(=O)NCCn1ccnc1 gave Toxoplasma: 9.238%.
CC(C)NC(=O)NC(C)c1ccc(-c2ccncc2)cc1 (stereo not shown) gave T. brucei: -37.53%; Toxoplasma: 1.876%.
CC(C)c1noc(CN(C)C(=O)c2ncn[nH]2)n1 gave T. brucei: -22.91%; Toxoplasma: 8.228%.
Cc1noc(Cl)c1CCC(=O)N1CCC(CC(N)=O)CC1 gave T. brucei: 21.85%; Toxoplasma: -5.964%.